# Results as given in patent publication US7183075B2, “Purified and isolated potassium-chloride cotransporter nucleic acids and polypeptides and therapeutic and screening methods using same” (Vanderbilt University, priority 2000, dated 2007).
# Sequences of proteins named here, by UniProt entry; tags and fusion partners are left off. A change or cut given only in a name is not applied to a line headed by its entry.
# UniProt Q9UHW9: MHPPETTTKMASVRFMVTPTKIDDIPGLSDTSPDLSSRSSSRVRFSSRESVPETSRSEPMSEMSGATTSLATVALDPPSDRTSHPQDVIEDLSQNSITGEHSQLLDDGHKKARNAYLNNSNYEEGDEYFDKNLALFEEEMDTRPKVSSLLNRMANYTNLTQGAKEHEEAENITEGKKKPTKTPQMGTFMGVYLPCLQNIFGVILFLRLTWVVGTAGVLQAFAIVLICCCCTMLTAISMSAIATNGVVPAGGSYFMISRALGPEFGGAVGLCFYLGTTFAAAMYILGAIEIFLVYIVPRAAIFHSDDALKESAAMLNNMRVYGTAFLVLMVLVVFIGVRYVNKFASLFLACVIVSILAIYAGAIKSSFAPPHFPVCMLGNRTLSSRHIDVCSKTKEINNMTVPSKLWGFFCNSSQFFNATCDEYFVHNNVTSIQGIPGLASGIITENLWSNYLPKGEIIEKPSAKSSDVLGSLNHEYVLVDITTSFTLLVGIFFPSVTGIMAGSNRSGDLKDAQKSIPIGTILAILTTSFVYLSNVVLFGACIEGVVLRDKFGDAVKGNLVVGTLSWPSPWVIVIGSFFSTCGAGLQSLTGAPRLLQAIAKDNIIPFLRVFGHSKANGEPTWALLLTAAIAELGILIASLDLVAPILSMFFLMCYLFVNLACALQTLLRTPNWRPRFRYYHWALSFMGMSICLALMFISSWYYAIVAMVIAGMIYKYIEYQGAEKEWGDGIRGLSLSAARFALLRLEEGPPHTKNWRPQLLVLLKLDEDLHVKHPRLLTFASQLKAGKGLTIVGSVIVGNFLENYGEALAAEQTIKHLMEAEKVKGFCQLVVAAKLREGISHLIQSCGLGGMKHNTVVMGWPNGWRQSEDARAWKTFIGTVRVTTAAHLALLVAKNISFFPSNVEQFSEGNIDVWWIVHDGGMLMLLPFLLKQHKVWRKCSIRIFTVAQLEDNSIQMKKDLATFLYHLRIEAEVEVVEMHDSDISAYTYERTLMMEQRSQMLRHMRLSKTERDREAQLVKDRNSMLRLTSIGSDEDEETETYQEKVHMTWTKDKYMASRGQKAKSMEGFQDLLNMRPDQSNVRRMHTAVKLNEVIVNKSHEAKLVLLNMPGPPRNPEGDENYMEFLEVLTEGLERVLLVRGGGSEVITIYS
# Target: T1, hKCC3b (Homo sapiens, UniProt Q9UHW9)
# T1 construct: expressed in transfected cells; host or cells: Xenopus oocytes microinjected with KCC3b cRNA
# T1 sequence (Q9UHW9 1-1099 isoform Q9UHW9-2): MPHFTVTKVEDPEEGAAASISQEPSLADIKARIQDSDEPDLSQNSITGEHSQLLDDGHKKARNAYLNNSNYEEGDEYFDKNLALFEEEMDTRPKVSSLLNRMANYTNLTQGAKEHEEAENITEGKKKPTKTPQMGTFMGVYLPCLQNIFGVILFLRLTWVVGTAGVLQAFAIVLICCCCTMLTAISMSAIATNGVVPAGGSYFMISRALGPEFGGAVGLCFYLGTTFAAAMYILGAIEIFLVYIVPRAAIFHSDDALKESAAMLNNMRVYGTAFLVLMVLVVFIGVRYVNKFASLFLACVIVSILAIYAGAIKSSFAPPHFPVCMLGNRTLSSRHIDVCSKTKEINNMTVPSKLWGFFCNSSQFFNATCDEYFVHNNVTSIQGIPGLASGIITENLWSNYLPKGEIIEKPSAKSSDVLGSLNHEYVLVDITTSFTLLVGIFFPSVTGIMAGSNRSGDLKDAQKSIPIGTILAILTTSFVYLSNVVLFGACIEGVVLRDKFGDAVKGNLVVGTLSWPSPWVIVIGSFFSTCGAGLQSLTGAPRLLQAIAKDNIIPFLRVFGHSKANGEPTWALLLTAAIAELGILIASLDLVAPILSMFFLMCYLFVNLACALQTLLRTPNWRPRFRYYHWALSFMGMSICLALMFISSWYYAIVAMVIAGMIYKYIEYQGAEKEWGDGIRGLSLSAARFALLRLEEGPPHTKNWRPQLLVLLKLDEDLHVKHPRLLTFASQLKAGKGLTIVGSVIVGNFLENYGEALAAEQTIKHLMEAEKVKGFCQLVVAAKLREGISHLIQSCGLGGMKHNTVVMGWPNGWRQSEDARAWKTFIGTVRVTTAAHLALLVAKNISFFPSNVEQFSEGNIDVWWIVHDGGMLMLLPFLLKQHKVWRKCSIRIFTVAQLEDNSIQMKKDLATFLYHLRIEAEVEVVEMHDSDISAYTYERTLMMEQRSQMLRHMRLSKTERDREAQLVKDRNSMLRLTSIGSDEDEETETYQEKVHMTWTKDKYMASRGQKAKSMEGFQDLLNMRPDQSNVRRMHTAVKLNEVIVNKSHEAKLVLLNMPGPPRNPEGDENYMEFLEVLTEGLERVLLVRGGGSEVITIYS
# Type: cell-based
# Protocol: Open bars, uptake assays performed in a control medium containing 10 mM K^+and 50 mM Cl^−; hatched bars, uptake assays performed in medium lacking Cl^−; bars with horizontal stripes, uptake assays performed in the presence of 100 nM calyculin A; black bars, uptake assays performed in the presence of okadaic acid; gray bars, uptake assays performed in the presence of cypermetrin.
smiles,measurement,value
NS(=O)(=O)c1cc(C(=O)O)c(NCc2ccco2)cc1Cl [furosemide],hKCC3b-mediated K+-Cl- cotransport in the presence of putative inhibitors,sensitive
